Record: PubChem BioAssay AID686943 (Drosophila RNAi Screening Center, 2013)
Screen: 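Search across the genome for regulators of signalling from receptor tyrosine kinase to ERK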 (primary screen). Cell system: Drosophila S2R+ haemocyte-like cells expressing YFP-tagged ERK (Rolled). Knock-down reagent: long dsRNA against Drosophila genes. Treatment: insulin stimulation versus unstimulated cells; dose and duration not given. Read-out: 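Antibody staining for doubly phosphorylated ERK divided by ERK-YFP signal, as plate z-scores, in insulin-treated and untreated cells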. Direction: replicate 1, z-score of dpERK with insulin: higher = more active ERK per ERK-YFP after insulin.
The deposit covers about 23,000 reagents; shown is a random part of those with a known target gene and a result. 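Extra replicates exist only for a retested subset of genes; insulin dose and duration not given; both raised and lowered dpERK matter.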 A plus sign joins genes that one reagent is predicted to hit. Further read-outs or replicates are left out here. Reagent sequences are not shown. Not given: the amount of reagent, the time to read-out.

replicate 1, z-score of dpERK with insulin, by target gene and reagent
CG42445: DRSC10858 0.28
Aladin: DRSC18121 0.6
MetRS: DRSC22533 -0.32
trr: DRSC18845 0.18
aralar1: DRSC13987 -0.14; DRSC16901 5.02
ClpP: DRSC02806 -0.49
CG42342: DRSC13165 0.88; DRSC14378 -2.1; DRSC15010 1.71; DRSC15011 0.9; DRSC15012 1.11; DRSC21791 -0.19; DRSC22861 0.24
CG17224: DRSC00489 -0.09
Cad99C: DRSC15050 -0.08; DRSC16317 0.01
CG17359: DRSC10265 0.29
Itpr: DRSC12354 0.5
CG18537: DRSC06764 0.11
CG30496: DRSC06805 0.74
CG14598: DRSC12541 1.04
Ca-alpha1D: DRSC03284 -0.15
CG3732: DRSC04410 -0.95
Trax: DRSC15709 1.07
CG11076: DRSC17197 0.15
Gr93d: DRSC21941 0.03
CG33461: DRSC22892 1.07
Blos4: DRSC10151 0.97
bc10: DRSC11326 0.78
koi: DRSC04980 -0.22; DRSC04991 -0.93
mRpS35: DRSC08551 0.06
CG8765: DRSC11041 -0.13
hoe1: DRSC00265 -0.31; DRSC00333 0.66; DRSC00353 1.62
CG14182: DRSC10181 -0.51
Snx27: DRSC17786 -0.15; DRSC18282 0.44; DRSC18284 0.04
CG10804: DRSC17764 0.02
CG18823: DRSC18168 -0.24
CG14072: DRSC02375 0.44
CG18542 + CG32939: DRSC15342 -0.2
PIP5K59B: DRSC04290 0.09; DRSC04403 0.63
NijC: DRSC14851 -0.44
Csp: DRSC11860 -0.07
CG11695: DRSC19416 -0.88
CG16894: DRSC06634 1; DRSC21785 -0.01
CG16713: DRSC00477 -0.29
CG33090: DRSC01908 0
Ssk: DRSC10756 0.7
MED4: DRSC11014 3.23
CG31145: DRSC13634 -0.04; DRSC14206 0.44; DRSC14670 -0.32; DRSC14671 0.32

A run of entries taken from the entries so far, for reference:
replicate 1, z-score of dpERK with insulin, by target gene and reagent
bc10: DRSC11326 0.78
koi: DRSC04980 -0.22; DRSC04991 -0.93
mRpS35: DRSC08551 0.06
CG8765: DRSC11041 -0.13
hoe1: DRSC00265 -0.31; DRSC00333 0.66; DRSC00353 1.62
CG14182: DRSC10181 -0.51
Snx27: DRSC17786 -0.15
